Values from PubChem BioAssay AID1259266 (Sanger Institute, 2017)

Assay: 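Search kinases and colorectal cancer genes for essential genes and drug synergy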 (primary screen)
Cell system: LS123 human colorectal cancer cells
Knock-down reagent: siRNA pool against human genes
Challenge: anchor drugs BYL719 (1 µM), cetuximab (5 µg/ml) or trametinib (10 nM), each chosen to barely slow growth alone; DMSO vehicle as the drug-free arm
Measured: 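Viability relative to non-targeting control pools, replicate mean, with a robust z-score for knock-down alone and synergy scores for each anchor drug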
Reading the numbers: robust z-score, knock-down alone: higher = more cells surviving after knock-down
Active means: 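Essential when the robust z-score of the knock-down alone is below -3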
Meaning of the calls: active = essential (knock-down alone cuts viability); inactive = no change
Shown is an unselected part of 794 reagents tested. Over the whole deposit, 16 (2%) got an active call. 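Calls reflect knock-down alone, not drug synergy; viability seems capped at 1 and z-scores at 0.585.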 Not all columns of the deposit are shown. Reagent sequences are not shown. Not given: the amount of reagent, the time to read-out.

Against PLK3 (polo like kinase 3) [SID56478615], the values are robust z-score, knock-down alone 0.585; inactive. Silencing of WEE1 (WEE1 G2 checkpoint kinase) [SID152152823] resulted in: robust z-score, knock-down alone -7.53; active. Silencing of MLKL (mixed lineage kinase domain like pseudokinase) [SID56479010] gave: robust z-score, knock-down alone 0.585; inactive. Depletion of MAP3K7 (mitogen-activated protein kinase kinase kinase 7) [SID135620737] resulted in: robust z-score, knock-down alone 0.585; inactive. ACSL6 (acyl-CoA synthetase long chain family member 6) [SID152156030] scored robust z-score, knock-down alone 0.585; inactive. With knock-down of PTGS1 (prostaglandin-endoperoxide synthase 1) [SID134310518], the screen gave robust z-score, knock-down alone -0.651; inactive.

DYRK1A [SID135620889] showed robust z-score, knock-down alone 0.585; inactive. With knock-down of ITPKA (inositol-trisphosphate 3-kinase A) [SID152154114], the record shows robust z-score, knock-down alone 0.585; inactive. Knock-down of SNRK (SNF related kinase) [SID152154333] resulted in: robust z-score, knock-down alone 0.585; inactive. With knock-down of TYK2 (tyrosine kinase 2) [SID135620633], the record shows robust z-score, knock-down alone 0.585; inactive. For EPHB1 (EPH receptor B1) [SID152152600], the entry reads robust z-score, knock-down alone -1.5; inactive. STK40 (serine/threonine kinase 40) [SID56479025] showed robust z-score, knock-down alone 0.521; inactive.

Knock-down of PKM (pyruvate kinase M1/2) [SID135621254] came out at: robust z-score, knock-down alone 0.585; inactive. Knock-down of TSSK3 (testis specific serine kinase 3) [SID152155438] resulted in: robust z-score, knock-down alone 0.248; inactive. Depletion of IKBKB (inhibitor of nuclear factor kappa B kinase subunit beta) [SID152150353] came out at: robust z-score, knock-down alone -0.26; inactive. With knock-down of PRKCD (protein kinase C delta) [SID56478673], the record shows robust z-score, knock-down alone 0.585; inactive. With knock-down of CDC42BPG (CDC42 binding protein kinase gamma) [SID135621430] the results were robust z-score, knock-down alone 0.585; inactive. Knock-down of CHD4 (chromodomain helicase DNA binding protein 4) [SID152156048] came out at: robust z-score, knock-down alone -1.36; inactive.

Knock-down of PIP4K2A (phosphatidylinositol-5-phosphate 4-kinase type 2 alpha) [SID135621253] resulted in: robust z-score, knock-down alone 0.585; inactive. Against HSPB8 (heat shock protein family B (small) member 8) [SID56478941] the deposit lists robust z-score, knock-down alone -1.51; inactive. STAG2 (STAG2 cohesin complex component) [SID152146952] showed robust z-score, knock-down alone 0.585; inactive. NRBP1 (nuclear receptor binding protein 1) [SID135620974] showed robust z-score, knock-down alone -0.959; inactive. With knock-down of PNCK (pregnancy up-regulated nonubiquitous CaM kinase) [SID152151558] the results were robust z-score, knock-down alone 0.585; inactive. DTYMK (deoxythymidylate kinase) [SID135621237] gave robust z-score, knock-down alone 0.585; inactive.

For TTK (TTK protein kinase) [SID56478775], the values are robust z-score, knock-down alone 0.219; inactive. Against AGK (acylglycerol kinase) [SID56479172], the entry reads robust z-score, knock-down alone 0.585; inactive. DGKG (diacylglycerol kinase gamma) [SID152147412] showed robust z-score, knock-down alone 0.369; inactive. After knock-down of ACVRL1 (activin A receptor like type 1) [SID152155046] the results were robust z-score, knock-down alone 0.005; inactive.

Not a retest: an excerpt of the list.
CHD4 (chromodomain helicase DNA binding protein 4) [SID152156048] — robust z-score, knock-down alone: -1.36; call: inactive
PIP4K2A (phosphatidylinositol-5-phosphate 4-kinase type 2 alpha) [SID135621253] — robust z-score, knock-down alone: 0.585; call: inactive
HSPB8 (heat shock protein family B (small) member 8) [SID56478941] — robust z-score, knock-down alone: -1.51; call: inactive
